PMC5421898
These are yes or no findings as the source states them, for the method shown. In cells and extracts the contact can be indirect. Some results given as binding are weak or reduced against the parent protein; the word gives no strength.

Protein sequences, listed by entry. Tags and fused reporters are not part of them. Residues count along the entry.
UniProt P19022, residues 26-906: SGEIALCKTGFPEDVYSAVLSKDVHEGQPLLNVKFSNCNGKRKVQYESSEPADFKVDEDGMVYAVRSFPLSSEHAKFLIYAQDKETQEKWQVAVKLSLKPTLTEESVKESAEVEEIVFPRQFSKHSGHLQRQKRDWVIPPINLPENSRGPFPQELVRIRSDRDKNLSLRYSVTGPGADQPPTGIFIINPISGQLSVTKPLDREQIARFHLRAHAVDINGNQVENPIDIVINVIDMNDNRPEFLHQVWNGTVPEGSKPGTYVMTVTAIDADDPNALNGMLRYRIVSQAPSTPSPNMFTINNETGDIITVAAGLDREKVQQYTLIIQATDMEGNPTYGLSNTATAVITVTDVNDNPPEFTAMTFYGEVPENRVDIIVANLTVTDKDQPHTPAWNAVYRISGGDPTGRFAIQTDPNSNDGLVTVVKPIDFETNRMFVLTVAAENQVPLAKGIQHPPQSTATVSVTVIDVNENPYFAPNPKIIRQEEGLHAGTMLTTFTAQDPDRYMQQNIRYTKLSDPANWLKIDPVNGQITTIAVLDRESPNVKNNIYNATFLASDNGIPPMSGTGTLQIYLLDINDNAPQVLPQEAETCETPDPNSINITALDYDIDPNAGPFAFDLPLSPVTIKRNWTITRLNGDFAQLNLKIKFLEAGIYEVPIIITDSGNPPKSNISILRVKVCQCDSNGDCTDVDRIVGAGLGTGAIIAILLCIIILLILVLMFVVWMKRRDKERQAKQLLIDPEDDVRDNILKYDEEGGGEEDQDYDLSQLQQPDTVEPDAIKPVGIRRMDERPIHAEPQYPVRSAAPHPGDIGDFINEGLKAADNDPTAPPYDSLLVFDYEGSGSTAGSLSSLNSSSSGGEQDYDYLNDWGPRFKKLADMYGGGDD
UniProt P35222: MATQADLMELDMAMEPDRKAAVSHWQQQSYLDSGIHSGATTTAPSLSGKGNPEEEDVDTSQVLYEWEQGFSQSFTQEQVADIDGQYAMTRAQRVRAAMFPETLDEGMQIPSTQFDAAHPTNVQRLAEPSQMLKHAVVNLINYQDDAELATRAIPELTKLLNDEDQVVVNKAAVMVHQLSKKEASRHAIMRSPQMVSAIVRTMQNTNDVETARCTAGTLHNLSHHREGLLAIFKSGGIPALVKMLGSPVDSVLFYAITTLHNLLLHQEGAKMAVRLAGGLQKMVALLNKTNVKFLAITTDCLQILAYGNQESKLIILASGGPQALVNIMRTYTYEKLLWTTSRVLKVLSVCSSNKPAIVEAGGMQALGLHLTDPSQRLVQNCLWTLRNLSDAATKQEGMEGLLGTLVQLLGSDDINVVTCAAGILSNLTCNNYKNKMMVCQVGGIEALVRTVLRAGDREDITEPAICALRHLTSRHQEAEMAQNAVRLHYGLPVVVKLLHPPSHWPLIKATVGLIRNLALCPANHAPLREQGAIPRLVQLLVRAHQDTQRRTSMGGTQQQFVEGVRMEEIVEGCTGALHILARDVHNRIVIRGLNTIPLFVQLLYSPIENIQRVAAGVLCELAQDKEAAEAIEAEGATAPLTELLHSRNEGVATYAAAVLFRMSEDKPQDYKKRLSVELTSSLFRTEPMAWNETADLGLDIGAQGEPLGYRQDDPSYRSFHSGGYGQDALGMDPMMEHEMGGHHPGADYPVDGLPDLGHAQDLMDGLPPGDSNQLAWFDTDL

B1: glial cell line-derived neurotrophic factor (GDNF) (ligand, UniProt P39905 78-211)
chain: SPDKQMAVLPRRERNRQAAAANPENSRGKGRRGQRGKNRGCVLTAIHLNVTDLGLGYETKEELIFRYCSGSCDAAETTYDKILKNLSRNRRLVSDKVGQACCRPIAFDDDLSFLDDNLVYHILRKHSAKRCGCI
B2: p120-catenin (protein, UniProt O60716 1-968)
chain: MDDSEVESTASILASVKEQEAQFEKLTRALEEERRHVSAQLERVRVSPQDANPLMANGTLTRRHQNGRFVGDADLERQKFSDLKLNGPQDHSHLLYSTIPRMQEPGQIVETYTEEDPEGAMSVVSVETSDDGTTRRTETTVKKVVKTVTTRTVQPVAMGPDGLPVDASSVSNNYIQTLGRDFRKNGNGGPGPYVGQAGTATLPRNFHYPPDGYSRHYEDGYPGGSDNYGSLSRVTRIEERYRPSMEGYRAPSRQDVYGPQPQVRVGGSSVDLHRFHPEPYGLEDDQRSMGYDDLDYGMMSDYGTARRTGTPSDPRRRLRSYEDMIGEEVPSDQYYWAPLAQHERGSLASLDSLRKGGPPPPNWRQPELPEVIAMLGFRLDAVKSNAAAYLQHLCYRNDKVKTDVRKLKGIPVLVGLLDHPKKEVHLGACGALKNISFGRDQDNKIAIKNCDGVPALVRLLRKARDMDLTEVITGTLWNLSSHDSIKMEIVDHALHALTDEVIIPHSGWEREPNEDCKPRHIEWESVLTNTAGCLRNVSSERSEARRKLRECDGLVDALIFIVQAEIGQKDSDSKLVENCVCLLRNLSYQVHREIPQAERYQEAAPNVANNTGPHAASCFGAKKGKDEWFSRGKKPIEDPANDTVDFPKRTSPARGYELLFQPEVVRIYISLLKESKTPAILEASAGAIQNLCAGRWTYGRYIRSALRQEKALSAIADLLTNEHERVVKAASGALRNLAVDARNKELIGKHAIPNLVKNLPGGQQNSSWNFSEDTVISILNTINEVIAENLEAAKKLRETQGIEKLVLINKSGNRSEKEVRAAALVLQTIWGYKELRKPLEKEGWKKSDFQVNLNNASRSQSSHSYDDSTLPLIDRNQKSDKKPDREEIQMSNMGSNTKSLDNNYSTPNERGDHNRTLDRSGDLGDMEPLKGTTPLMQDEGQESLEEELDVLVLDDEGGQVSYPSMQKI

Key:
[1] = biological target: precursor N-cadherin (proN-cadherin) (human (endogenous in U251)) (UniProt P19022); assay: co-IP; data not shown: immunoprecipitation of proN-cadherin from U251 cells with or without GDNF, western blot for β-catenin and p120-catenin
[2] = biological target: precursor N-cadherin (proN-cadherin) (human (endogenous in U251)) (UniProt P19022); assay: co-IP; cell membrane protein extracts of U251 cells (untreated, vector or pro-CDH2 transfected); 2 ug first antibody, protein A+G agarose, three washes with lysis buffer, western blot; the precipitating antibody is not told for Figure 3C, D; proN-cadherin antibody for Figure 6
[3] = biological target: precursor N-cadherin (proN-cadherin), over-expressed from the vector EF1A-proCDH2-IRES-EGFP (human) (UniProt P19022); assay: as above
[4] = biological target: precursor N-cadherin (proN-cadherin) (human (endogenous in U251)) (UniProt P19022); assay: as above; remark: listed apart in the source

| Molecule | binding [1] | binding [2] | binding [3] | binding [4] |
| --- | --- | --- | --- | --- |
| β-catenin (from UniProt P35222 1-781) | binds | binds |  |  |
| B1 |  |  | binds | binds |
| B2 | binds |  |  |  |
